Results deposited as PubChem BioAssay AID1259308 (NCATS, 2017).
Purpose: 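Candidate targets for better recombinant protein yield in mammalian cells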 (primary screen). Cell system: human HEK293 embryonic kidney cells stably expressing firefly luciferase (HEK-CMV-Luc2-Hygro). Reagent: single siRNA against human genes, 0.8 pmol siRNA per well. Timing: 72 h. Measurement: 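Luciferase light (ONE-Glo) measured on one replicate plate set and viability (CellTiter-Glo) on the other, scaled to a negative control siRNA, with robust z-scores and luciferase per cell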. Reading the numbers: total luciferase, z-score and total luciferase, % of control: higher = more reporter protein produced; luciferase per cell, z-score: higher = more reporter output per viable cell; viable cells, % of control: higher = more viable cells. Call rule: 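An siRNA counts as active if its total luciferase robust z-score exceeds 3; genes with two or more such siRNAs out of three were retested with fresh siRNAs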. Meaning of the calls: active = raised luciferase; inactive = no rise.
In all, the deposit lists about 59,000 reagents; this is a random part of them. About 1,510 of them (2.6%) were called active. 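Calls use total luciferase alone and ignore viability, so some active siRNAs may act by altering cell number.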 The numbers tell different reagents against one gene apart.

target gene,reagent,"total luciferase, z-score","total luciferase, % of control","luciferase per cell, z-score","viable cells, % of control",outcome
SMIM5,1,0.976,101,0.235,106,inactive
SMIM5,2,0.434,90.5,0.211,95.7,inactive
SMIM5,3,-1.38,54.5,-0.846,76,inactive
TUBAL3,1,-0.137,79.2,0.172,84.5,inactive
TUBAL3,2,0.859,99,0.157,106,inactive
TUBAL3,3,2.4,130,1.41,100,inactive
OR8I2,1,-0.261,76.7,0.527,74.6,inactive
OR8I2,2,1,102,1.11,84.8,inactive
OR8I2,3,0.0131,82.1,-0.084,93.8,inactive
CRIP1,1,0.801,97.8,1.39,75.8,inactive
CRIP1,2,-0.483,72.3,-0.447,90.9,inactive
CRIP1,3,1.6,114,3.56,49.8,inactive
MYL9,1,-0.961,62.8,-1.31,99.2,inactive
MYL9,2,-1.28,56.4,-1.07,83.5,inactive
MYL9,3,-0.783,66.3,-1.17,101,inactive
SUN3,1,0.182,85.5,0.346,87.2,inactive
SUN3,2,-1.34,55.2,-1.75,97.7,inactive
SUN3,3,-0.0813,80.3,-0.551,104,inactive
CPSF4,1,-0.914,63.7,-0.795,87.8,inactive
CPSF4,2,0.289,87.6,0.983,75.6,inactive
CPSF4,3,-0.0963,80,0.698,74.4,inactive
SUGCT,1,0.483,91.5,0.661,85.9,inactive
SUGCT,2,0.755,96.9,-0.00748,109,inactive
SUGCT,3,0.231,86.5,0.631,81.8,inactive
OGFRL1,1,-0.61,69.8,-0.852,97.6,inactive
OGFRL1,2,-0.597,70,-1.04,103,inactive
OGFRL1,3,-0.0179,81.5,-0.55,105,inactive
PEX3,1,-0.0195,81.5,-0.0722,92.8,inactive
PEX3,2,0.564,93.1,0.204,98.6,inactive
PEX3,3,0.632,94.5,-0.101,108,inactive
DRAM1,1,1.55,113,1.57,83.1,inactive
DRAM1,2,1.2,106,0.367,107,inactive
DRAM1,3,-1.09,60.3,-0.0684,68.6,inactive
PMEL,1,-0.819,65.6,-0.569,85.1,inactive
PMEL,2,1.51,112,1.83,77.3,inactive
PMEL,3,-1.02,61.5,0.106,66.8,inactive

3 entries from above, sorted by “total luciferase, % of control”, highest first.
target gene,reagent,"total luciferase, z-score","total luciferase, % of control","luciferase per cell, z-score","viable cells, % of control",outcome
PEX3,3,0.632,94.5,-0.101,108,inactive
PEX3,2,0.564,93.1,0.204,98.6,inactive
PEX3,1,-0.0195,81.5,-0.0722,92.8,inactive

Continued.
target gene,reagent,"total luciferase, z-score","total luciferase, % of control","luciferase per cell, z-score","viable cells, % of control",outcome
SCAPER,1,-0.436,73.2,-0.467,92.5,inactive
SCAPER,2,1.27,107,0.886,94.8,inactive
SCAPER,3,0.286,87.6,-0.282,105,inactive
OR11G2,1,0.992,102,0.907,89.4,inactive
OR11G2,2,-0.418,73.6,-0.254,87.9,inactive
OR11G2,3,2.22,126,1.44,96.3,inactive
E2F8,1,-2,42,-3.18,109,inactive
E2F8,2,2.45,131,1.95,87.5,inactive
E2F8,3,-1.73,47.5,-1.23,73.4,inactive
FAM90A3,1,0.609,94,1.08,79.2,inactive
FAM90A3,2,-1.08,60.3,-0.245,71.9,inactive
FAM90A3,3,-0.189,78.1,0.159,83.7,inactive
LOC440084,1,-0.863,64.7,-0.803,89.4,inactive
LOC440084,2,-0.269,76.5,-0.906,109,inactive
LOC440084,3,-0.936,63.3,-0.966,91.2,inactive
INHBE,1,1.27,107,1.53,80.2,inactive
INHBE,2,0.547,92.8,0.441,92.3,inactive
INHBE,3,-2.07,40.6,-2.31,83.4,inactive
LRP1B,1,-1.53,51.5,-1.4,83.2,inactive
LRP1B,2,-0.285,76.2,-0.11,87.7,inactive
LRP1B,3,-0.152,78.9,-0.244,94,inactive
